# Measured data: PubChem BioAssay AID1159584 (Peter MacCallum Cancer Centre, 2016)
# Aim: 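Knock-downs that harm CDH1-null cells more than parental MCF10A cells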 (primary screen)
# System: human MCF10A breast epithelial cells, parental and CDH1-null
# Knock-down reagent: siRNA against human genes
# Measurement: 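Cell viability by CellTiter-Glo ATP luminescence, each line scaled to the mean of mock wells across plates, then CDH1-null over parental ratio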
# Direction: CDH1-null / parental viability ratio: higher = CDH1-null cells survive relatively better than parental; CDH1-null viability vs mock: higher = more viable CDH1-null cells
# Here is a random part of about 18,000 deposited reagents. Further read-outs or replicates are left out here. Not stated in the record: the amount of reagent, the time to read-out.
CDH1-null / parental viability ratio,CDH1-null viability vs mock (fraction of mock),target
1.05,0.8,SP100 (SP100 nuclear body protein)
1.29,0.9,MTNR1A (melatonin receptor 1A)
0.91,0.51,RING1 (ring finger protein 1)
1.04,0.97,SLFN5 (schlafen family member 5)
1.19,0.44,STRA8 (stimulated by retinoic acid 8)
1.12,0.63,PORCN (porcupine O-acyltransferase)
0.91,0.67,FASTKD5 (FASTK mitochondrial RNA regulator 5)
1.27,0.94,"HLA-A (major histocompatibility complex, class I, A)"
0.86,0.69,WEE1 (WEE1 G2 checkpoint kinase)
1.09,0.94,"ST3GAL4 (ST3 beta-galactoside alpha-2,3-sialyltransferase 4)"
1.19,0.43,NEU1 (neuraminidase 1)
0.96,0.92,OSMR (oncostatin M receptor)
1.1,0.66,RRN3 (RNA polymerase I transcription factor RRN3)
1.27,1.04,RBMY1F (RNA binding motif protein Y-linked family 1 member F)
1.1,0.79,DHRS12 (dehydrogenase/reductase 12)
0.95,0.91,HRC (histidine rich calcium binding protein)
1.07,0.73,SDHAF4 (succinate dehydrogenase complex assembly factor 4)
1.22,0.83,ZNF529 (zinc finger protein 529)
0.96,1,DNAJC28 (DnaJ heat shock protein family (Hsp40) member C28)
1.04,0.73,MRPL51 (mitochondrial ribosomal protein L51)
0.94,0.75,ACOT4 (acyl-CoA thioesterase 4)
0.88,1,TESC (tescalcin)
1.03,0.6,OVOL2 (ovo like zinc finger 2)
0.86,0.62,DEPP1 (DEPP autophagy regulator 1)
1.15,0.6,CDC42EP5 (CDC42 effector protein 5)
1.02,0.94,LRRC14B (leucine rich repeat containing 14B)
0.96,0.8,PLIN1 (perilipin 1)
0.9,0.98,SLC2A4
0.98,0.92,KLHL17 (kelch like family member 17)
1,0.94,C1QTNF9 (C1q and TNF related 9)
1.49,0.82,OR1A1 (olfactory receptor family 1 subfamily A member 1)
1.22,0.66,ANGPT4 (angiopoietin 4)
1.21,0.94,"PCDHGA2 (protocadherin gamma subfamily A, 2)"
0.85,0.88,"FARS2 (phenylalanyl-tRNA synthetase 2, mitochondrial)"
0.93,0.8,CDK16 (cyclin dependent kinase 16)
0.96,0.48,MND1 (meiotic nuclear divisions 1)
1.04,1,MAGEE2 (MAGE family member E2)
1.51,0.83,MPV17L2 (MPV17 mitochondrial inner membrane protein like 2)
1.39,0.89,OR56B4 (olfactory receptor family 56 subfamily B member 4)
1.18,0.9,NUDT8 (nudix hydrolase 8)
1.32,0.78,CAPN15 (calpain 15)
1.14,0.4,CELF5 (CUGBP Elav-like family member 5)
1.28,0.64,ASTN2 (astrotactin 2)
0.98,0.94,SPATA13 (spermatogenesis associated 13)
1.34,0.78,CASS4 (Cas scaffold protein family member 4)
1.13,0.96,INTS14 (integrator complex subunit 14)
0.93,0.86,C6orf62 (chromosome 6 open reading frame 62)
0.98,0.8,RARS1 (arginyl-tRNA synthetase 1)
1.01,0.9,CANT1 (calcium activated nucleotidase 1)
0.93,0.78,ZNF419 (zinc finger protein 419)
0.96,0.46,LAMA2 (laminin subunit alpha 2)
1.17,0.69,MCM3 (minichromosome maintenance complex component 3)
1.05,0.9,RIPK2 (receptor interacting serine/threonine kinase 2)
1.21,0.68,ZMYM4 (zinc finger MYM-type containing 4)
0.82,0.67,MAGED1 (MAGE family member D1)
1.01,0.88,SOX3 (SRY-box transcription factor 3)
0.76,0.62,DRC1 (dynein regulatory complex subunit 1)
0.9,0.72,TCEA3 (transcription elongation factor A3)
0.98,0.88,KPNA6 (karyopherin subunit alpha 6)
1.19,0.94,CC2D2A (coiled-coil and C2 domain containing 2A)
0.92,0.9,ERAP2 (endoplasmic reticulum aminopeptidase 2)
1.02,0.84,PRDM4 (PR/SET domain 4)
0.94,0.78,LAPTM5 (lysosomal protein transmembrane 5)
0.98,0.88,SIM2 (SIM bHLH transcription factor 2)
0.92,0.96,TBXT (T-box transcription factor T)
0.85,0.82,UTP20 (UTP20 small subunit processome component)
0.99,0.91,ELF3 (E74 like ETS transcription factor 3)
1.16,0.66,OR2S2 (olfactory receptor family 2 subfamily S member 2)

Reformatted: entries from further up.
| CDH1-null / parental viability ratio | CDH1-null viability vs mock (fraction of mock) | target |
| --- | --- | --- |
| 1.02 | 0.94 | LRRC14B (leucine rich repeat containing 14B) |
| 0.96 | 0.8 | PLIN1 (perilipin 1) |
| 0.9 | 0.98 | SLC2A4 |
| 0.98 | 0.92 | KLHL17 (kelch like family member 17) |
